The source of these data is the supplement of paper PMC7125110.

± gives the standard error. Many of these values have a large error. Bounds are passed on as bounds.

The chains are these.
B1: glmS ribozyme (parent)
chain: AUAAAAGCGCCAGAACUACAGAAAUGUAGUUGACGAGGAGGAGGUUUAUCGAAUUUUCGGCGGAUGCCUCCAAA

Variants of B1 are the subject of one data set. The data set can be described thus: kcat; higher = faster cleavage; RNA array. The note with it: with glucosamine-6-phosphate. A digest of the protocol: (§1)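 Weighted Michaelis–Menten fits across concentrations supplied kcat and KM, based on kobs from one- or two-exponential decay fits to normalised per-tile medians. The data came from barcoded ribozyme variants transcribed in situ by E. coli RNA polymerase on sequenced MiSeq chips and tracked at 37 °C by a hybridised Cy3 probe. Glucosamine-6-phosphate (40 μM to 10 mM) in HEPES/KCl/Mg(OAc)2 buffer was flowed in.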
A word on the kcat: it is the number of substrate molecules converted per active site and unit of time at saturation. In the case of A52U C70U, the kcat was found to be 0.00063 ± 0.0001 s⁻¹. The same measure, in the same setting: the figure for G43U C67G is 0.00171 ± 0.00015 s⁻¹; for A39U A42C it is 0.000556 ± 3.1e-05 s⁻¹; for U49G C50G G63C U69C it is 4.82e-05 ± 4.1e-05 s⁻¹.

For A39G U57A, the kcat was determined as 0.000584 ± 0.00039 s⁻¹.

Turning to G43C G63A, the kcat was below 1e-05 s⁻¹.

Turning to U45A U55A A64G, the kcat came out at 0.00688 ± 0.0036 s⁻¹. Take U45C U46G: the kcat turned out to be 0.00122 ± 0.00043 s⁻¹. As for U47A G51U, the kcat was 1.3e-05 ± 8.1e-06 s⁻¹. Turning to A39U U55C, the kcat came out at 0.0267 ± 0.014 s⁻¹. On to G40C U54G, for which the kcat was 0.00305 ± 0.0016 s⁻¹.

In the case of A42U U69A, the catalytic constant (kcat) amounted to 0.0199 ± 0.015 s⁻¹. Consider A42U A52G, for which the kcat stood at 1.76e-05 ± 2.4e-06 s⁻¹. Consider C50U U54C, for which the kcat was 4.13e-05 ± 2.1e-05 s⁻¹. On to G40U U47C, for which the kcat came to 0.00133 ± 0.00022 s⁻¹. The same measure, in the same setting: the figure for G38U C50U is 1.93e-05 ± 1e-05 s⁻¹; for G37U C58G it is 1.4e-05 ± 8.9e-06 s⁻¹. Same read-out and setting: under U55G stands 0.0523 ± 0.0043 s⁻¹; under G40A C71A, 0.0232 ± 0.019 s⁻¹; under G40A C71G, 0.00741 ± 0.0039 s⁻¹.

As to U55A U56G, the kcat was determined as 0.0146 ± 0.0083 s⁻¹. U55A U56C: the kcat was 0.017 ± 0.012 s⁻¹.

G40U C58A: the kcat is 0.000609 ± 4.4e-05 s⁻¹. As for G38A A52G C68G, the kcat amounted to 3.67e-05 ± 2.2e-05 s⁻¹. On to U55A U57G, for which the kcat is 0.000181 ± 0.0001 s⁻¹.

In the case of U55A C67U, the kcat came to 0.0203 ± 0.011 s⁻¹. Take A53U G66A: the kcat turned out to be 0.0162 ± 0.0055 s⁻¹. As for U54G C67A, the kcat is 0.00581 ± 0.0044 s⁻¹. On to U47G A64G C70G, for which the kcat is 3.26e-05 ± 9.4e-06 s⁻¹. Same read-out and setting: under A52G U57G stands 0.00809 ± 0.0069 s⁻¹. Still for that read-out and setting: under A39U G40C U46C stands 0.000472 ± 0.00031 s⁻¹. Still for that read-out and setting: the figure for G40U C71A is 0.0152 ± 0.0083 s⁻¹; for G38C G66C C70U it is 1.23e-05 ± 9.7e-07 s⁻¹. Take G51U C67A: the kcat turned out to be 1.18e-05 ± 6.7e-06 s⁻¹. As for G38U C61U U65A U69G, the kcat was 2.93e-05 ± 1.7e-05 s⁻¹.

Consider G43U C68A, for which the kcat is 0.0321 ± 0.026 s⁻¹. On the same count and under the same terms, the figure for A53G C68U is 0.00472 ± 0.0034 s⁻¹. On to U54C C70U, for which the kcat was found to be 0.00794 ± 0.0014 s⁻¹. As for A39G U47C, the kcat was determined as 0.0217 ± 0.011 s⁻¹. As to A39C C70A, the kcat is below 1e-05 s⁻¹. Still for that read-out and setting: the figure for A48G C68G is 5.98e-05 ± 7.3e-06 s⁻¹; for A48G C68A it is 1.35e-05 ± 5e-06 s⁻¹. Same read-out and setting: the figure for A53G U69C is 0.00315 ± 0.0025 s⁻¹; for G41U U47A it is 0.000627 ± 0.00021 s⁻¹; for C50G G59U it is 4.3e-05 ± 3e-05 s⁻¹.

Turning to A39U A53U, the kcat was 0.0113 ± 0.0033 s⁻¹. Regarding G38U A64C, the kcat is 1.58e-05 ± 1.1e-05 s⁻¹. On the same count and under the same terms, under U46G C70U stands 0.0041 ± 0.0022 s⁻¹; under A53U C68U, 0.00696 ± 0.0048 s⁻¹; under G51A G62C U65C, 1.12e-05 ± 8.3e-06 s⁻¹.

Turning to A42G G66A, the kcat was determined as 0.0281 ± 0.018 s⁻¹. For the variant U55G C67U, the kcat turned out to be 0.00117 ± 0.00068 s⁻¹. For the variant A48G G51U, the kcat is below 1e-05 s⁻¹. For the variant G40A U54C, the kcat stood at 0.00522 ± 0.00053 s⁻¹. The same measure, in the same setting: under U47A A48C stands 0.000714 ± 0.00042 s⁻¹; under A53U U56G, 0.00834 ± 0.0061 s⁻¹; under C50G U57A C58G, 9.39e-05 ± 6.3e-05 s⁻¹. On the same count and under the same terms, under U49G C68G U69G stands 3.29e-05 ± 1.9e-05 s⁻¹. Same read-out and setting: the figure for A42C A53U is 9.64e-05 ± 5.9e-05 s⁻¹; for U47G C68U it is 0.00101 ± 0.00051 s⁻¹; for G38U G40U it is below 1e-05 s⁻¹. Regarding G44C U46C, the kcat stood at 4.04e-05 ± 2.5e-05 s⁻¹.

On to A53U C67U, for which the kcat was found to be 0.00202 ± 0.0012 s⁻¹.

In another data set the parent is B1. The data set can be described thus: KM; higher = weaker cofactor use; RNA array. To be noted: with glucosamine-6-phosphate. A digest of the protocol:
as §1
A word on the KM: it is the substrate concentration at which the rate is half of its maximum. Consider A52U C70U, for which the KM amounted to 3490 ± 1100 µM. In the case of G43U C67G, the KM is 1020 ± 150 µM. Still for that read-out and setting: the figure for A39U A42C is 3030 ± 290 µM. As for U45A U55A A64G, the KM was determined as 225 ± 200 µM. On the same count and under the same terms, the figure for U45C U46G is 2110 ± 1100 µM; for A39U U55C it is 3180 ± 1900 µM; for G40C U54G it is 1970 ± 1500 µM.

In the case of G40U U47C, the KM was 2010 ± 550 µM.

For U55G, the KM was found to be 2390 ± 240 µM. The same measure, in the same setting: under G40A C71A stands 4470 ± 4200 µM. The same measure, in the same setting: the figure for G40A C71G is 1850 ± 1400 µM; for U55A U56G it is 3170 ± 2300 µM. With U55A U56C, the KM was found to be 12200 ± 10000 µM. Regarding G40U C58A, the KM was 150000 ± 11000 µM.

For U55A U57G, the KM is 13300 ± 12000 µM. On the same count and under the same terms, under U55A C67U stands 3030 ± 2000 µM.

On to A53U G66A, for which the KM came to 2370 ± 1000 µM. On the same count and under the same terms, under G40U C71A stands 971 ± 680 µM. U54C C70U: the KM came to 507 ± 130 µM. With A39G U47C, the KM was 2930 ± 1900 µM.

Consider G41U U47A, for which the KM came to 517 ± 330 µM. Still for that read-out and setting: the figure for A39U A53U is 1260 ± 530 µM; for U46G C70U it is 829 ± 620 µM; for A53U C68U it is 3820 ± 3400 µM. On to A42G G66A, for which the KM was determined as 3360 ± 2600 µM. On the same count and under the same terms, under G40A U54C stands 908 ± 140 µM; under U47A A48C, 4260 ± 3900 µM. In the case of A53U U56G, the KM stood at 1540 ± 1500 µM.

Consider A42C A53U, for which the KM came to 84700 ± 58000 µM.

As to U47G C68U, the KM worked out at 938 ± 860 µM. On the same count and under the same terms, under A53U C67U stands 270 ± 240 µM.

Variants of B1 are the subject of the next data set. Nature of the data set: self-cleavage kobs at 160 uM GlcN6P; higher = faster cleavage; RNA array. The note with it: with glucosamine-6-phosphate. Put shortly:
as §1
Regarding A52U C70U, the “self-cleavage kobs at 160 uM GlcN6P” value stood at 2.11e-05 ± 1.2e-05 s⁻¹. With A39G U47C, the “self-cleavage kobs at 160 uM GlcN6P” value stood at 0.000634 ± 0.00033 s⁻¹. On the same count and under the same terms, under A48G C68G stands 0.000518 ± 0.00027 s⁻¹.

Variants of B1 are the subject of a further data set. The data set can be described thus: self-cleavage kobs at 40 uM GlcN6P; higher = faster cleavage; RNA array. The note with it: with glucosamine-6-phosphate. Put shortly:
as §1
With U49G C50G G63C U69C, the “self-cleavage kobs at 40 uM GlcN6P” value turned out to be 3.7e-05 ± 2.2e-05 s⁻¹. The same measure, in the same setting: under C50G G59U stands 2.01e-05 ± 1.4e-05 s⁻¹.

Another data set covers variants of B1. The data set can be described thus: self-cleavage kobs at 2500 uM GlcN6P; higher = faster cleavage; RNA array. The note with it: with glucosamine-6-phosphate. A digest of the protocol: as §1
With U49G C50G G63C U69C, the “self-cleavage kobs at 2500 uM GlcN6P” value is 4.92e-05 ± 3.2e-05 s⁻¹. As to A42U A52G, the “self-cleavage kobs at 2500 uM GlcN6P” value came to 1.75e-05 ± 1.7e-05 s⁻¹.

Turning to C50U U54C, the “self-cleavage kobs at 2500 uM GlcN6P” value amounted to 1.7e-05 ± 9.3e-06 s⁻¹. As to G38A A52G C68G, the “self-cleavage kobs at 2500 uM GlcN6P” value turned out to be 3.17e-05 ± 2.8e-05 s⁻¹. On to U55A C67U, for which the “self-cleavage kobs at 2500 uM GlcN6P” value amounted to 0.0527 ± 0.037 s⁻¹. The same measure, in the same setting: the figure for U47G A64G C70G is 2.35e-05 ± 1.6e-05 s⁻¹; for U54C C70U it is 0.00383 ± 0.0025 s⁻¹; for A48G C68A it is 1.97e-05 ± 1.4e-05 s⁻¹.

Variants of B1 are the subject of a further data set. The data set can be described thus: self-cleavage kobs at 640 uM GlcN6P; higher = faster cleavage; RNA array. To be noted: with glucosamine-6-phosphate. A digest of the protocol: as §1
As to A39G U57A, the “self-cleavage kobs at 640 uM GlcN6P” value turned out to be 3.34e-05 ± 1.8e-05 s⁻¹. On to C50U U54C, for which the “self-cleavage kobs at 640 uM GlcN6P” value was 2.18e-05 ± 2.1e-05 s⁻¹. The same measure, in the same setting: the figure for U47G A64G C70G is 4.99e-05 ± 2.5e-05 s⁻¹; for G38U C61U U65A U69G it is 5.06e-05 ± 3.4e-05 s⁻¹.

The variants in the next data set derive from B1. The data set can be described thus: self-cleavage kobs at 10000 uM GlcN6P; higher = faster cleavage; RNA array. To be noted: with glucosamine-6-phosphate. A digest of the protocol:
as §1
As for C50U U54C, the “self-cleavage kobs at 10000 uM GlcN6P” value amounted to 3.43e-05 ± 1.8e-05 s⁻¹. Consider U47G A64G C70G, for which the “self-cleavage kobs at 10000 uM GlcN6P” value was found to be 3.51e-05 ± 1.8e-05 s⁻¹. Turning to C50G G59U, the “self-cleavage kobs at 10000 uM GlcN6P” value came out at 1.78e-05 ± 1.2e-05 s⁻¹. On to G44C U46C, for which the “self-cleavage kobs at 10000 uM GlcN6P” value amounted to 2.34e-05 ± 2.2e-05 s⁻¹.
